Results deposited as PubChem BioAssay AID1259405 (NCATS, 2018).
Here is a random part of about 50,000 reagents. In the full data, about 4,000 (8%) got an active call. 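Mouse siRNA library applied to hamster cells; one well for each siRNA.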 A number with no mark means an inactive call. No sequences are given here.

Purpose: 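Silenced genes that increase secreted GFP made by CHO cells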 (primary screen)
Cells: Chinese hamster CHO-K1 ovary cells with stable secreted eGFP expression
Knock-down reagent: single siRNA against mouse genes, 0.8 pmol siRNA per well (2 µl of 400 nM stock)
Duration: 3 days
Read-out: 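Percent of the per-plate non-targeting control median for intracellular GFP per well by laser scanning cytometry and for cell viability by ATP luminescence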
Reading the numbers: GFP, % of control: higher = more GFP per well, higher productivity; viability (ATP), % of control: higher = more viable cells (more ATP)
Active means: 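a knock-down is called active if GFP reaches 120% or more of non-targeting control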

gene symbol | PubChem SID | GFP, % of control | viability (ATP), % of control
Cdh6 | SID363572985 | 84.7 | 82.5
Cdh6 | SID363577561 | 82.1 | 62
Cdh6 | SID363581081 | 92.3 | 72
Fbxw11 | SID363540085 | 73.2 | 72.5
Fbxw11 | SID363561386 | 87 | 71.8
Fbxw11 | SID363564422 | 70.1 | 78.7
Spata3 | SID363554943 | 73.8 | 60.7
Spata3 | SID363568390 | 95.4 | 74
Spata3 | SID363586449 | 53.9 | 61.2
Ang4 | SID363546650 | 97.3 | 85.3
Ang4 | SID363548406 | 95.4 | 87.1
Ang4 | SID363560584 | 197 (active) | 86.6
Spag9 | SID363573338 | 80.6 | 82.5
Spag9 | SID363588577 | 104 | 89.1
Ahsa1 | SID363572739 | 43.6 | 39.5
Ahsa1 | SID363578019 | 78.3 | 79.7
Ahsa1 | SID363582243 | 75.7 | 103
Mkrn2 | SID363573624 | 73.7 | 89.9
Mkrn2 | SID363581368 | 80.4 | 80.8
Mkrn2 | SID363583832 | 38.4 | 55.1
Vwa5b2 | SID363540304 | 87.2 | 92.3
Vwa5b2 | SID363542056 | 103 | 93.6
Vwa5b2 | SID363547033 | 75 | 50.4
Vwa5b2 | SID363549845 | 70.1 | 104
Vwa5b2 | SID363566972 | 146 (active) | 51.9
Vwa5b2 | SID363587899 | 81.2 | 94.6
Limch1 | SID363541185 | 39.4 | 51
Limch1 | SID363555812 | 70.8 | 84.9
Limch1 | SID363566101 | 67.2 | 78.3
Fyco1 | SID363539977 | 71.1 | 83.6
Fyco1 | SID363561278 | 76.7 | 30.4
Fyco1 | SID363564314 | 72.9 | 71
Bche | SID363570150 | 101 | 86.5
Bche | SID363576486 | 93.9 | 82.4
Bche | SID363579654 | 57.4 | 34.5
